The text below walks through data of PubChem BioAssay AID493014 (National Center for Advancing Translational Sciences (NCATS), 2011).

Molecules are shown by their SMILES. The list shows a part of the results. The main result of the screen is listed elsewhere. These columns were measured beside it and carry no call. The list favours compounds with an active or inconclusive main result. Potencies come from curve fits of mixed quality, noted in brackets.

The AC50 is the midpoint of the concentration-response curve, whichever way the signal moves.

The assay can be described thus: qHTS Assay to Find Inhibitors of Chronic Active B-Cell Receptor Signaling. Conditions: ABC-DLBCL IkBa-CBG/CBR reporter, luminescence ratio (green luciferase fused to IkBa over red control in TMD8 lymphoma cells), 4 h. In outline: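 Concentration-response series (up to 46 uM) were applied to TMD8 dual-reporter cells for 4 h at 37C with doxycycline. Green/red ratio, after filter-overlap correction, defined %Activity; red signal alone was normalised to basal cells and zero luminescence.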

Setting [1] is: measured here: CBR red luminescence, cell number.

In the case of `O=C(CN1C(=O)NC2(CCCc3ccccc32)C1=O)NCc1cccs1` (centres undefined), under setting [1], the AC50 is 10.3 µM [rising, partial curve].

Take `CCCNC(=S)N1CCC(C(=O)c2ccc(F)cc2)CC1`: under setting [1], the AC50 was 14.1 µM [rising, partial curve, poor fit].

On to `Cc1sc2nc(C3CC3)nc(SCC(=O)NCc3ccco3)c2c1C`, for which the AC50 under setting [1] is 6.31 µM [rising, partial curve, poor fit].

For the compound `CCCN(CCC)C(=O)c1cc(-c2ccc3c(c2)OCO3)nc2ccccc12`, the AC50 under setting [1] is 1.84 µM [falling, full curve] and the AC50 (measured here: IkBa-CBG green luminescence) is 20.6 µM [rising, partial curve, poor fit].

In the case of `CC(=O)N1CCN(c2ccccc2NC(=O)c2cc(Br)ccc2Cl)CC1`, the AC50 under setting [1] is 0.461 µM [rising, full curve, poor fit].

Regarding `Cc1cc(C)nc(/N=C(\N)N2CCCCC2)n1`, under setting [1], the AC50 was 22.4 µM [falling, single point].

Consider `CSCSC1=C(C#N)C(c2ccccc2Cl)C(C(C)=O)=C(C)N1` (centres undefined), for which the AC50 under setting [1] was 7.94 µM [falling, partial curve, poor fit].

Consider `CCCOc1ccc(-c2cn3ccccc3n2)cc1`, for which, under setting [1], the AC50 is 8.91 µM [falling, partial curve, poor fit].

`CC1(C)CC(=O)C(C=NCCN2CCN(C(=O)NC34CC5CC(CC(C5)C3)C4)CC2)=C(O)C1`: the AC50 under setting [1] is 6.31 µM [rising, partial curve, poor fit].

With `C[C@H]1CCC(=O)N([C@H](CSc2ccc(Br)cc2)Cc2ccccc2)CC1`, the AC50 under setting [1] is 4.61 µM [rising, single point].

`COC(=O)c1ccc(COc2cccc3c2CCN(Cc2cccc(C)c2)C3=O)o1`: the AC50 under setting [1] is 20.6 µM [falling, partial curve].

Regarding `O=C(Nc1nnc(-c2ccccc2)s1)c1ccc(F)cc1`, the AC50 under setting [1] is 0.398 µM [falling, full curve, poor fit].

In the case of `Cc1cc(C)cc(OCC(=O)Nc2ccc3c(c2)OCO3)c1`, the AC50 under setting [1] was 0.355 µM [rising, full curve].

`COc1ccc(Cl)cc1NC(=S)NC1CCCC1`: the AC50 under setting [1] was 3.98 µM [falling, full curve, poor fit].

Consider `Cc1ccc2cc(CCNC(=O)c3ccc(Br)o3)c(=O)[nH]c2c1`, for which the AC50 under setting [1] is 11.2 µM [falling, partial curve, poor fit].

Consider `COc1ccc(OC)c(-c2csc(-c3cccs3)n2)c1`, for which the AC50 under setting [1] was 11.2 µM [rising, partial curve].

On to `CCc1c(C)[nH]c(=S)c(C#N)c1C`, for which the AC50 under setting [1] is 35.5 µM [rising, single point].

For the compound `FCCCOc1ccc(-c2ccnc3ncnn23)cc1`, the AC50 under setting [1] is 35.5 µM [rising, partial curve, poor fit].
